In the supplement of paper PMC11732987, “Enantioselective OTUD7B fragment discovery through chemoproteomics screening and high-throughput optimisation” (Communications Chemistry, 2025):
This is one part of the list. The data scatter; read single values as rough.

Chains of the proteins cited; added tags and fusions are not shown. Lines headed by an entry give the natural chain unless they say otherwise; changes in a name come on top. Residues count along the entry.
UniProt Q7Z5K2: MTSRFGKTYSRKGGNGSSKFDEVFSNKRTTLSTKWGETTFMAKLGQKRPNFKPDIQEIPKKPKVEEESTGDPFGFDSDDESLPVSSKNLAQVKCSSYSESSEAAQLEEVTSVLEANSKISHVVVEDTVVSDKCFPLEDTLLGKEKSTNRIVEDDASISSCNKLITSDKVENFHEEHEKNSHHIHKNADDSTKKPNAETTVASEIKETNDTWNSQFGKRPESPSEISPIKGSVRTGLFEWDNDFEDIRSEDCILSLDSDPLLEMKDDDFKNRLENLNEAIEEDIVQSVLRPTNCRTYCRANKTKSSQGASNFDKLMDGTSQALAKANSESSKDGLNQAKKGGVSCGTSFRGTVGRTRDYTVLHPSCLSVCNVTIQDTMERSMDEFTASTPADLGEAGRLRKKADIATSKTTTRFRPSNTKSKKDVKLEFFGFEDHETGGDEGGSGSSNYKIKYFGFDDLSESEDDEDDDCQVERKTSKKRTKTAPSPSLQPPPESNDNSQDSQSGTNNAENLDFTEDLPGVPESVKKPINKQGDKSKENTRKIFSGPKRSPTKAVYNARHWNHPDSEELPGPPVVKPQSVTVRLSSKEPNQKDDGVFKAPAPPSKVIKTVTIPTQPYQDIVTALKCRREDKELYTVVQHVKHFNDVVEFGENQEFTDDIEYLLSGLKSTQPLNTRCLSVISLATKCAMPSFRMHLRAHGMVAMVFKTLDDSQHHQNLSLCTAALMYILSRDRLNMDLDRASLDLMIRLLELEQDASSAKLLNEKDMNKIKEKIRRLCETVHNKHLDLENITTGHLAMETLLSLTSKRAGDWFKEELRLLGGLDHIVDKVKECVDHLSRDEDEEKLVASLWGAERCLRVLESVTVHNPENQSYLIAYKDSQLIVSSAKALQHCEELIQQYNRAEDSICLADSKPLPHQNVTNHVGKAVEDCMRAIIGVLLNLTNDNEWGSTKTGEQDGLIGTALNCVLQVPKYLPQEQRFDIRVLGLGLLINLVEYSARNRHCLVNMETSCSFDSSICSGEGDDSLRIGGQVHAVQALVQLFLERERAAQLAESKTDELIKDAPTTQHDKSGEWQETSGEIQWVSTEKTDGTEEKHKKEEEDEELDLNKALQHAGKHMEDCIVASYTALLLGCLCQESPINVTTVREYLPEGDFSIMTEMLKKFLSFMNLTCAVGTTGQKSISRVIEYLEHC
UniProt Q562E7: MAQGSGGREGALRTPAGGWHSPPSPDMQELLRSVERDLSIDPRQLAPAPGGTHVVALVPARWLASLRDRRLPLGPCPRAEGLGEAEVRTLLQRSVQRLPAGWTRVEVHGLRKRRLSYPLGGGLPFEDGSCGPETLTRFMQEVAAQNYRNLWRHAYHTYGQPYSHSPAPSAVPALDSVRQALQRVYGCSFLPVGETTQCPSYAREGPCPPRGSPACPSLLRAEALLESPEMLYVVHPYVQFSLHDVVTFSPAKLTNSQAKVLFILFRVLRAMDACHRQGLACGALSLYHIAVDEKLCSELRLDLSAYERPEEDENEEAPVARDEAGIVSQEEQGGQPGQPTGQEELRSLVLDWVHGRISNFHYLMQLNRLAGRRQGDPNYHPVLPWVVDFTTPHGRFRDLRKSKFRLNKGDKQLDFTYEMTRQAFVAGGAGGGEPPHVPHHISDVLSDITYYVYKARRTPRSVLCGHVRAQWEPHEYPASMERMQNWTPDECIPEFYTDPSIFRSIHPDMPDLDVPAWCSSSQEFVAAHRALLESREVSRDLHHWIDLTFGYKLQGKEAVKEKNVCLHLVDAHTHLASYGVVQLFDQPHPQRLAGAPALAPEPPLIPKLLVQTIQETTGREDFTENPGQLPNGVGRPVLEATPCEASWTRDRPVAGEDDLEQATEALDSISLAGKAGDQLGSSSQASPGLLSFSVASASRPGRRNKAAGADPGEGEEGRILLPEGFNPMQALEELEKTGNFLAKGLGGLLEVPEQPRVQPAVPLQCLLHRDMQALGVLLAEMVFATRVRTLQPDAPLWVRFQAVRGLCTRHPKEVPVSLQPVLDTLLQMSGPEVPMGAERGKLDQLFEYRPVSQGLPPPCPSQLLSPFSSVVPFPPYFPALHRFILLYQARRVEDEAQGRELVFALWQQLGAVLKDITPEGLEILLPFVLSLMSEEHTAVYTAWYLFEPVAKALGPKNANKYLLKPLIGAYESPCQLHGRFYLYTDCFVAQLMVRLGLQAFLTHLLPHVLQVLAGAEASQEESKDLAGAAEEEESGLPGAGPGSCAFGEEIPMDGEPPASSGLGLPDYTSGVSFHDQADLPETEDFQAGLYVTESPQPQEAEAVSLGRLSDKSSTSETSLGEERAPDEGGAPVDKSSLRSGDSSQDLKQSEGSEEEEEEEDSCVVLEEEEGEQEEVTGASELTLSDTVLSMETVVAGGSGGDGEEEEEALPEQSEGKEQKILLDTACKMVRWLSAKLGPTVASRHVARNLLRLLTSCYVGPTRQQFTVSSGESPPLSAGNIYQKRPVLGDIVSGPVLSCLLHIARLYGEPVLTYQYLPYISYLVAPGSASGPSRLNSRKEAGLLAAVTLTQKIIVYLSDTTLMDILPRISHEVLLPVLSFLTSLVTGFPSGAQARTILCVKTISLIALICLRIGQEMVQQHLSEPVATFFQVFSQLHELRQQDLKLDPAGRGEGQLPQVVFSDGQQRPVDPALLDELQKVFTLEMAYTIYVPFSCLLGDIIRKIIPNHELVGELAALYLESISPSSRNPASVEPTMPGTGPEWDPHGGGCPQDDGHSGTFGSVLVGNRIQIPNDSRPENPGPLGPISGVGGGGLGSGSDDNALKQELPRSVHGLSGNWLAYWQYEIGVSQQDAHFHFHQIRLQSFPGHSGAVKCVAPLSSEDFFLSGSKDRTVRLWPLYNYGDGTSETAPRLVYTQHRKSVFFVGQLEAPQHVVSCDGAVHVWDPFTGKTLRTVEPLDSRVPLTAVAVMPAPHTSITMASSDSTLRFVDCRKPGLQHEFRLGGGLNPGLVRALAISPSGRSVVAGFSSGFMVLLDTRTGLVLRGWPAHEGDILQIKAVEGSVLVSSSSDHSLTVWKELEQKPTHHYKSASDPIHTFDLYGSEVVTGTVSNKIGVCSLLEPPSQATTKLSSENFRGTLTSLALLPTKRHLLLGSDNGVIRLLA
UniProt Q9BW85, 271-292: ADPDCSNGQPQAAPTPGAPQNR
UniProt Q8TBZ3: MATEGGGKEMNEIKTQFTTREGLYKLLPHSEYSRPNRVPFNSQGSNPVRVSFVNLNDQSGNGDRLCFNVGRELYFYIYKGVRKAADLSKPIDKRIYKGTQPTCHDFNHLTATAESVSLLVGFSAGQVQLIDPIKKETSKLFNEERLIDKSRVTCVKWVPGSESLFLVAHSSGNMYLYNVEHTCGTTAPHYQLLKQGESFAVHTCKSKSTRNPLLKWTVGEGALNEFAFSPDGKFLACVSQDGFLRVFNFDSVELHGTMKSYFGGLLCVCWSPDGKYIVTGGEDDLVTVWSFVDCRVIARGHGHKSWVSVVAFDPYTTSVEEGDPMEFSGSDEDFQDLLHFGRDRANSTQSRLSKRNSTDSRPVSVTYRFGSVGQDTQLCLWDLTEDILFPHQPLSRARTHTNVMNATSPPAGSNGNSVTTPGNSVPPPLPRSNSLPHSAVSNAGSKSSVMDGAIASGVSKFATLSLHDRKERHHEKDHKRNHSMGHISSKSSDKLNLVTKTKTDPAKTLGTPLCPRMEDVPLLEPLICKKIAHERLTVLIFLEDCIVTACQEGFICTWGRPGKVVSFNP
UniProt Q9H967: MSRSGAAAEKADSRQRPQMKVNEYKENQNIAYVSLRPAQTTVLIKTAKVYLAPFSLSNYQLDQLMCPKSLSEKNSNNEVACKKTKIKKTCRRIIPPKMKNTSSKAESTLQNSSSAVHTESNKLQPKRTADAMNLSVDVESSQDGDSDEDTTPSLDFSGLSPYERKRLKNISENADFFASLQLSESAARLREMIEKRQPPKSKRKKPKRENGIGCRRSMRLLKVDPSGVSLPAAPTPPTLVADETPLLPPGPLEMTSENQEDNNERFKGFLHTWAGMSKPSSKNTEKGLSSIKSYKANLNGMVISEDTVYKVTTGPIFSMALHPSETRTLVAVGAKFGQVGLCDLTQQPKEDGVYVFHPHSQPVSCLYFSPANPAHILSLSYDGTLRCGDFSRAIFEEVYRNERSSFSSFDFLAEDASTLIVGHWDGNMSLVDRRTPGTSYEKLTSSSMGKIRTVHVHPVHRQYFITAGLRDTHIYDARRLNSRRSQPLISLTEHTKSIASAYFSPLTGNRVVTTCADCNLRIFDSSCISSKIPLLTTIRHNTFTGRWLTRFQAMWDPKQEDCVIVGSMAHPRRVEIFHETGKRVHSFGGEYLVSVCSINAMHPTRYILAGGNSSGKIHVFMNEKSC
UniProt Q99986: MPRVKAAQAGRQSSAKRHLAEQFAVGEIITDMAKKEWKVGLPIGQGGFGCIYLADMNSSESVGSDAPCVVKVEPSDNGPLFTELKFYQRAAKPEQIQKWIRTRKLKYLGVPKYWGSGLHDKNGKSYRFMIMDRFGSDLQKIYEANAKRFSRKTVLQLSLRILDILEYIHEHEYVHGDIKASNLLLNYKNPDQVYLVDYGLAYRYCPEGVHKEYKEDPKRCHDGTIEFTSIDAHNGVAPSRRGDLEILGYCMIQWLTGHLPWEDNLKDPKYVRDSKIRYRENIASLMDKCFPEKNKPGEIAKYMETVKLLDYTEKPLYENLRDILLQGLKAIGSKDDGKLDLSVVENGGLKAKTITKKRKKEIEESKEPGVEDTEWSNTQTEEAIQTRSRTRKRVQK
UniProt O75083: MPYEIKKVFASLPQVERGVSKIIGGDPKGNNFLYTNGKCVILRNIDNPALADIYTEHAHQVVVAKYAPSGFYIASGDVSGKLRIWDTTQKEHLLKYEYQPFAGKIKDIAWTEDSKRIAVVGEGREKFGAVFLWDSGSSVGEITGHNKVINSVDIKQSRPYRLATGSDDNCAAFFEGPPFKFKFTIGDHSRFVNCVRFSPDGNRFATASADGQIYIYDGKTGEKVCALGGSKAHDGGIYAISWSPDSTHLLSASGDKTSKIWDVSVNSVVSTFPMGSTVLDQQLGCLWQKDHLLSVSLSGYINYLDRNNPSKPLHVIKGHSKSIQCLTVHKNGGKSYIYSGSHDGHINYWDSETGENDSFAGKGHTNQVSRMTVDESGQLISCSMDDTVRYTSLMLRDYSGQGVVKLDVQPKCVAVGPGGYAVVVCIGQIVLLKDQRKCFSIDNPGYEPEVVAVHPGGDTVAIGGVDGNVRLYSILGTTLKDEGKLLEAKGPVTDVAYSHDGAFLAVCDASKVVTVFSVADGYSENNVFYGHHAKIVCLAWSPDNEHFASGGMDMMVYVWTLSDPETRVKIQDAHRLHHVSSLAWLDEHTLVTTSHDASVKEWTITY
UniProt P57081: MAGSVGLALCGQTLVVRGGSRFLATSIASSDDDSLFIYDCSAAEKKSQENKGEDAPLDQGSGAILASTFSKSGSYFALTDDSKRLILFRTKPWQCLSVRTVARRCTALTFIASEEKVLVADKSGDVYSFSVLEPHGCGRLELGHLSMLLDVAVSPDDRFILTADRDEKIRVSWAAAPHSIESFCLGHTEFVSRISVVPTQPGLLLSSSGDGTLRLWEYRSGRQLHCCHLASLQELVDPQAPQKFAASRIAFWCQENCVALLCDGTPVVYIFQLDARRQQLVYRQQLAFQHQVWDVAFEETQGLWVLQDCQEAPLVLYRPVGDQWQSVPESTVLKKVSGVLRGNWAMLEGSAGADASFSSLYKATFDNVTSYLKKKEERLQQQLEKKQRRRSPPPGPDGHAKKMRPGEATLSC
UniProt Q9UID3: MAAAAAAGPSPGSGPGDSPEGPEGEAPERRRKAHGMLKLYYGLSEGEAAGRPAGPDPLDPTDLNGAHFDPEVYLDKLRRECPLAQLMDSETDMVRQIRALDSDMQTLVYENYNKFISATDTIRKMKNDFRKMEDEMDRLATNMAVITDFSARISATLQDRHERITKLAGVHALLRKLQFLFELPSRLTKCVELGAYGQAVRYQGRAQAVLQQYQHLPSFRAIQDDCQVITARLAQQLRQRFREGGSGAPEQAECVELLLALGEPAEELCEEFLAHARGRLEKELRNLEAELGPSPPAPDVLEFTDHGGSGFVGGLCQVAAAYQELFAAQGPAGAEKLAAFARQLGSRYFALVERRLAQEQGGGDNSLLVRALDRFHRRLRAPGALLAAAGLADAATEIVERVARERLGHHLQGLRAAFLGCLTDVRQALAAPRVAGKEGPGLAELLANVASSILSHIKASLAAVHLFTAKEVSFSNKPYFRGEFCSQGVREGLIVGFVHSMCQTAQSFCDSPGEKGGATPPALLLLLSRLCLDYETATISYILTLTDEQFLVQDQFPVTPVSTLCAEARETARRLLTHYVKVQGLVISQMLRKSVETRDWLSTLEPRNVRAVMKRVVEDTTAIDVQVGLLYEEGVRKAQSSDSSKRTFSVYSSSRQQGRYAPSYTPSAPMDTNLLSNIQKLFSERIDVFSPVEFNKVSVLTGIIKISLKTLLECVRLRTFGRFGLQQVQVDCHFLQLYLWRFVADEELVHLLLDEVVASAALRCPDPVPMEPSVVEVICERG

Key:
[1] = compound: ClCC(=O)N[C@@H]1CCCc2ccccc12; assay: log2 mean competition ratio of IA-DTB cysteine labelling (DMSO/compound) (log2 ratio); higher = stronger cysteine engagement by compound; settings: treatment time: 4 h, cell line lysate: HEK293T
Procedure: (§1)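 IA-DTB competitive cysteine chemoproteomics in HEK293T RIPA lysate. Lysates were treated with compound 29 or 30 at 50 or 200 µM for 4 h, then IA-DTB (500 µM, 1 h), trypsin-digested, NeutrAvidin-enriched and analysed by diaPASEF. Competition ratio = intensity DMSO / intensity compound (n=4 treated, n=64 DMSO); binding: mean log2 CR ≥ 1 and p ≤ 0.05 plus QC filters. Target is the cysteine site.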

[2] = compound: ClCC(=O)N[C@H]1CCCc2ccccc12; assay: as above; settings: treatment time: 4 h, cell line lysate: HEK293T
Procedure: as §1

| Target | log2 mean competition ratio ([1]; 50 µM) | log2 mean competition ratio ([1]; 200 µM) | log2 mean competition ratio ([2]; 50 µM) | log2 mean competition ratio ([2]; 200 µM) |
| --- | --- | --- | --- | --- |
| ZBTB11 C39 (UniProt O95625) | 0.196 | -0.158 | 0.251 | 0.0215 |
| WDR62 C1072 (UniProt O43379) | 0.155 | 0.308 | 0.042 | 0.322 |
| WDR6 C1107 (UniProt Q9NNW5) | -2.06e-05 | -0.169 | 0.234 | -0.0649 |
| ZC3H13 C42 (UniProt Q5T200) | -0.0781 | 0.331 | -0.411 | 0.219 |
| WDR46 C172 | -0.314 | 0.00535 | -0.0504 | -0.0898 |
| WDR59 C677 (UniProt Q6PJI9) | 0.236 | 0.431 | -0.374 | -0.179 |
| WDR41 C131 (UniProt Q9HAD4) | 0.243 | -0.331 | 0.0876 | -0.255 |
| ZBTB18 C216 (UniProt Q99592) | 0.0505 | -0.168 | 0.179 | -0.226 |
| WAPL C344 (UniProt Q7Z5K2) | 0.098 | -0.0183 | 0.062 | 0.0824 |
| WDR7 C326 (UniProt Q9Y4E6) | -0.335 | -0.0252 | -0.404 | -0.0898 |
| WDR81 C1256 (UniProt Q562E7) | 0.505 | 0.0682 | 0.0763 | -0.0159 |
| WBP2 C80 (UniProt Q969T9) | 0.287 | -0.176 | 0.214 | 0.11 |
| WEE1 C143 (UniProt P30291) | 0.281 | 0.202 | -0.00782 | 0.17 |
| YJU2 C275 (UniProt Q9BW85) | -0.192 | 0.0418 | -0.427 | -0.0869 |
| WDR36 C866 (UniProt Q8NI36) | 0.121 | -0.179 | 0.25 | -0.0503 |
| VSTM4 C219 | 0.0528 | -0.105 | -0.012 | -0.0782 |
| XPC C60 (UniProt Q01831) | -0.0141 | -0.384 | 0.237 | -0.0691 |
| XPOT C38 | 0.124 | -0.134 | 0.0461 | -0.201 |
| WDR20 C514 (UniProt Q8TBZ3) | -0.0102 | -0.508 | 0.269 | -0.109 |
| ZBED4 C8 (UniProt O75132) | 0.0388 | 0.0289 | -0.103 | -0.0284 |
| WDR76 C527 (UniProt Q9H967) | 0.141 | -0.165 | -0.163 | -0.186 |
| WDFY3 C16 (UniProt Q8IZQ1) | 0.111 | 0.0133 | -0.294 | 0.319 |
| WDR62 C41 (UniProt O43379) | 0.0792 | -0.185 | 0.306 | -0.225 |
| VRK1 C205 (UniProt Q99986) | 0.161 | -0.0627 | 0.15 | -0.141 |

| Target | log2 mean competition ratio ([1]; 50 µM) | log2 mean competition ratio ([1]; 200 µM) | log2 mean competition ratio ([2]; 50 µM) | log2 mean competition ratio ([2]; 200 µM) |
| --- | --- | --- | --- | --- |
| WDR1 C382 (UniProt O75083) | -0.431 | 0.612 | 0.0666 | -0.0845 |
| ZC3H3 C643 (UniProt Q8IXZ2) | -0.105 | 0.307 | 0.121 | 0.342 |
| WNK3 C502 (UniProt Q9BYP7) | 0.101 | 0.331 | -0.249 | -0.148 |
| WASHC3 C48 (UniProt Q9Y3C0) | -0.26 | -0.13 | 0.0338 | -0.155 |
| WDR37 C417 (UniProt Q9Y2I8) | -0.21 | 0.083 | 0.0621 | -0.14 |
| VWA8 C724 (UniProt A3KMH1) | 0.202 | -0.0301 | 0.0899 | -0.113 |
| WDR53 C63 (UniProt Q7Z5U6) | -0.322 | -0.192 | -0.179 | -0.0933 |
| WWC2 C1061 (UniProt Q6AWC2) | 0.0431 | 0.246 | -0.0861 | 0.336 |
| VPS8 C216 (UniProt Q8N3P4) | 0.0495 | 0.0437 | -0.125 | -0.0791 |
| XPR1 C620 (UniProt Q9UBH6) | -0.011 | 0.17 | -0.204 | -0.272 |
| YWHAQ C25 (UniProt P27348) | -0.155 | -0.165 | -0.15 | 0.00057 |
| WDR81 C1653 (UniProt Q562E7) | 0.241 | -0.406 | 0.224 | -0.109 |
| WDFY3 C143 (UniProt Q8IZQ1) | -0.264 | -0.191 | 0.289 | -0.0671 |
| WDR17 C399 | -0.431 | -0.126 | 0.00851 | 0.416 |
| WAPL C776 (UniProt Q7Z5K2) | -0.0418 | -0.0898 | -0.225 | -0.14 |
| VRK2 C373 (UniProt Q86Y07) | 0.0681 | 0.0963 | 0.0325 | 0.00194 |
| WDR4 C412 (UniProt P57081) | 0.351 | 0.152 | 0.174 | 0.216 |
| YAE1 C161 (UniProt Q9NRH1) | -0.13 | 0.182 | -0.303 | 0.296 |
| ZC3H11A C22 (UniProt O75152) | -0.191 | 0.17 | 0.129 | 0.215 |
| VPS51 C421 (UniProt Q9UID3) | -0.0654 | -0.258 | -0.308 | -0.0761 |
| WAPL C929 (UniProt Q7Z5K2) | -0.121 | -0.0312 | 0.0161 | 0.0663 |
| VTA1 C38 (UniProt Q9NP79) | -0.0171 | 0.321 | -0.15 | 0.144 |
| XPA C153 (UniProt P23025) | -0.0359 | 0.382 | -0.259 | 0.297 |
| ZC3H11A C209 (UniProt O75152) | 0.243 | 0.314 | 0.143 | 0.379 |

As entered above:
Value of WDR81 C1653 (UniProt Q562E7) under log2 mean competition ratio ([1]; 200 µM): -0.406
Value of YAE1 C161 (UniProt Q9NRH1) under log2 mean competition ratio ([2]; 50 µM): -0.303
